Data reported in PubChem BioAssay AID2551 (National Center for Advancing Translational Sciences (NCATS), 2010).
Screen size: about 310,000 compounds; about 17,000 (5.5%) were called active. The inconclusive results got no clear call from the source; some entries with a clear call stand among them for comparison. The call rests on the fitted dose curve; in most records, active means well fitted inhibition curve with a large enough effect; inconclusive means small, poorly fitted or top-dose-only effect, or effect the other way; inactive means no such curve, though single readings can be large or run the other way. A potency beside an inconclusive call is a rough fit, not a confirmed value.

Sequences of proteins named here, by UniProt entry; tags and fusion partners are left off. A change or cut given only in a name is not applied to a line headed by its entry.
UniProt P51450: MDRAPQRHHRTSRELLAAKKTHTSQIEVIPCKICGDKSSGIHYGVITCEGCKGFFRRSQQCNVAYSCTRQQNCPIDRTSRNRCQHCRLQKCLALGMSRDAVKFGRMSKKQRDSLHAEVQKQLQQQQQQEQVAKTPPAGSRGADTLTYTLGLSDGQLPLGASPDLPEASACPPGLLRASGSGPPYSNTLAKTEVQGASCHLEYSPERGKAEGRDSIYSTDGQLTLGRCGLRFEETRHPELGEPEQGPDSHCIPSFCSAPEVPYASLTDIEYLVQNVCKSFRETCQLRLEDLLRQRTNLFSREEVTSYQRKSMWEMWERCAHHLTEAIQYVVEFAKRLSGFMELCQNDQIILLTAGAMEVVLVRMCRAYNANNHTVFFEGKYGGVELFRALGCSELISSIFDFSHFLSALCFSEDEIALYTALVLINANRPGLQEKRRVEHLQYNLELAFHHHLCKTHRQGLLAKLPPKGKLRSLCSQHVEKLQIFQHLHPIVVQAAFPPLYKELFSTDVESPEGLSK

The compounds below were run against Nuclear receptor ROR-gamma (Mus musculus) (UniProt P51450) (assay: qHTS for inhibitors of ROR gamma transcriptional activity). Settings: Drosophila S2 Gal4-RORgamma UAS-luciferase reporter, 20 h; activity change, negative = inhibition: at 53.6 µM (top of the series).
Summary of the method: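 Read-out: Photinus luciferase luminescence; inhibitors lower reporter signal. Insect Schneider cells with Gal4-ROR gamma fusion under metallothionein promoter, UAS reporter; 700 uM final copper sulfate induction, 20 hr, ambient temperature.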
Further: nearly all actives have a fitted effect of over 60% in size.
On the % scale 0 is the no-effect control and ±100 the full control effect; potency means the concentration at half of the fitted maximal effect.

SMILES | Potency | activity change, negative = inhibition
O=C(c1ccc(CNS(=O)(=O)c2ccc(Br)cc2)cc1)N1CCCCCC1 | inconclusive: 35.5 µM [activator, single point] | –
NC(=O)Cn1cnc2nc3n(c2c1=O)CCC3 | – | inactive: 10.1%
c1ccc(CNc2ncnc3ccc(-c4ccc5c(c4)OCO5)cc23)cc1 | inconclusive: 14.1 µM [activator, single point] | –
CCc1c(C)nc2ccc(Br)cc2c1Cl | inconclusive: 7.08 µM [activator, partial curve] | –
Cc1nnc(Nc2ccccn2)c2ccccc12 | inconclusive: 5.62 µM [inhibitor, single point] | –
Cc1cc(N2CCOCC2)nc2ccc(NC(=S)NCCC(C)C)cc12 | inconclusive: 10 µM [inhibitor, partial curve, poor fit] | –
CCOC(=O)c1c(-c2cccs2)csc1NC(=O)CSc1ncn[nH]1 | inconclusive: 35.5 µM [activator, single point] | –
COc1ccc(OC)c(N/C=C/C(=O)c2ccccc2)c1 | active: 4.47 µM | –
CNS(=O)(=O)c1cc(NC(=O)c2cccc3cccnc23)ccc1C | – | inactive: -6.31%
Cc1cccc(NC(=O)NC(=S)NC(=O)c2ccccc2)c1 | active: 2.51 µM | –
Fc1ccc(N2CCN(c3ccc4c(C(F)(F)F)cc(C(F)(F)F)nc4n3)CC2)cc1 | inconclusive: 11.2 µM [activator, single point] | –
NC(=S)Cc1nc(-c2ccccc2)cs1 | active: 11.2 µM | –
CN(CC(=O)NC(c1ccccc1)c1ccccc1)Cc1nc2ccccc2c(=O)[nH]1 | inconclusive: 0.282 µM [inhibitor, full curve, poor fit] | –
Cc1nc(SCC(N)=O)[nH]c(=O)c1Cc1ccc(OC(C)C)cc1 | inconclusive: 35.5 µM [activator, single point] | –
N#C/C(=C/c1ccc(N2CCCCC2)o1)c1cccc(F)c1 | active: 7.08 µM | –
Cc1ccc(C(=O)N/N=C\c2cc3c(cc2Br)OCO3)cn1 | – | inactive: -0.279%
O=C(O)c1ccccc1NS(=O)(=O)c1cccc(-n2sc3ccccc3c2=O)c1 | – | inactive: 10.5%
COc1cc(CC(=O)Nc2nccs2)cc(OC)c1OC | – | inactive: -13%
COc1ccc(NC(=O)c2ccc(Br)c(S(=O)(=O)N3CCOCC3)c2)cc1 | – | inactive: 30.6%
C=CCc1cccc(CNc2nc3ccccc3n2CC)c1O | inconclusive: 12.6 µM [activator, single point] | –
CC(C)C(C(=O)NC1CCCC1)N(CC1CCCO1)C(=O)CNS(=O)(=O)c1ccccc1 (stereo not given) | – | inactive: -0.056%
O=C(NCCC1=CCCCC1)C1CCN(c2nnc(-n3cccc3)s2)CC1 | inconclusive: 10 µM [activator, partial curve] | –
CCN(CC(=O)Nc1c(F)cccc1F)C(=O)CCc1nc2cc(S(=O)(=O)N(C)C)ccc2n1CC | – | inactive: 8.61%
COc1ccc(NC(=O)NNC(=O)c2cc(C3CC3)nc3ccccc23)c(OC)c1 | inconclusive: 15.8 µM [activator, partial curve] | –

SMILES | Potency | activity change, negative = inhibition
Cc1ccc2cc(CN(C(=O)c3cccs3)c3ccccc3)c(=O)[nH]c2c1 | – | inactive: -0.274%
COc1cc(CN(C)Cc2cc(=O)oc3cc(C)c(Cl)cc23)ccc1OC(F)F | inconclusive: 35.5 µM [activator, single point] | –
CCN(CC)C(=S)SCC(=O)Nc1nc(=O)c2ccccc2s1 | inconclusive: 35.5 µM [inhibitor, single point] | –
O=C(CCC1CCCC1)Nc1ccc(OCC(=O)N2CCOCC2)cc1 | inconclusive: 2.82 µM [inhibitor, single point] | –
Cc1cccc2c(=O)c(C(=O)NCCc3ccccc3)c[nH]c12 | – | inactive: -14% [at 1.91 µM]
Cc1cnn(CCC(=O)NNC(=S)NCC(C)C)c1 | active: 0.562 µM | –
O=C(c1ccc(C(F)(F)F)cc1)N1CCC(=O)N([C@H](COCc2ccc(C(F)(F)F)cc2)Cc2ccccc2)CC1 | inconclusive: 28.2 µM [activator, single point] | –
COc1cc(N(C)C)cc(CN(C)CCc2ccc([N+](=O)[O-])cc2)c1O | inconclusive: 35.5 µM [activator, single point] | –
Cc1c(C=O)c(Cl)n(C)c(=O)c1C#N | – | inactive: -19.6%
C/C(=N\NC(=O)c1nn(C)c(C)c1Br)c1ccc(NC(=O)C2CCCC2)cc1 | active: 5.62 µM | –
COc1ccc(/C=N/NC(=O)c2[nH]c3ccc(Br)cc3c2-c2ccccc2)cc1 | active: 10 µM | –
O=C(CSC1=N/C(=C/c2ccc(Cl)c(Cl)c2)C(=O)N1c1ccccc1F)NC1CC1 | inconclusive: 15.8 µM [activator, single point] | –
Cc1ccc(S(=O)(=O)N2CCCCC2)cc1C(=O)Nc1ccc(N2CCOCC2)cc1 | inconclusive: 20 µM [activator, partial curve] | –
Cn1c(SCC(=O)Nc2ncc(C(F)(F)F)cc2Cl)nnc1-c1ccc(Cl)cc1 | active: 10 µM | –
CCCCNC(=S)N(C)/N=C/c1sc(N2CCCCC2)nc1-c1cccs1 | active: 11.2 µM | –
CCC1CN(S(=O)(=O)c2ccc3c(c2)NC(=O)CC(=O)N3)c2cc(Cl)ccc2O1 (stereo not given) | inconclusive: 35.5 µM [activator, single point] | –
COc1ccc(OC)c(C(=O)N2CCC(C(=O)c3ccc(F)cc3)CC2)c1 | inconclusive: 12.6 µM [activator, single point] | –
Cc1nc(C(=O)NCC(=O)c2ccc(Cl)cc2)c(C(F)(F)F)o1 | inconclusive: 1.78 µM [activator, partial curve] | –
COc1cccc(N(CC(=O)NCCSCc2ccc(C)cc2)S(C)(=O)=O)c1 | inconclusive: 3.55 µM [activator, partial curve, poor fit] | –
O=C(O)c1ccc(C=C(c2nc3ccccc3s2)c2nc3ccccc3s2)cc1 | – | inactive: -31.6%
O=C(NCC1CCCO1)c1ccccc1-c1nc(-c2ccccc2)no1 (stereo not given) | inconclusive: 0.0398 µM [activator, full curve, poor fit] | –
O=C(NCc1ccco1)c1nnc(Cc2ccc(F)cc2)o1 | inconclusive: 31.6 µM [activator, single point] | –
CCC1CCCCN1c1cc(C)nc2cc(-c3cccc(C)c3)nn12 (stereo not given) | active: 10 µM | –
Cc1cc(=O)n2[nH]c(=O)c(N=Nc3ccccc3)c2[nH]1 | – | inactive: -22.7%

Of the compounds above, these have a CF3 group.
SMILES | Potency | activity change, negative = inhibition
Fc1ccc(N2CCN(c3ccc4c(C(F)(F)F)cc(C(F)(F)F)nc4n3)CC2)cc1 | inconclusive: 11.2 µM [activator, single point] | –
O=C(c1ccc(C(F)(F)F)cc1)N1CCC(=O)N([C@H](COCc2ccc(C(F)(F)F)cc2)Cc2ccccc2)CC1 | inconclusive: 28.2 µM [activator, single point] | –
Cn1c(SCC(=O)Nc2ncc(C(F)(F)F)cc2Cl)nnc1-c1ccc(Cl)cc1 | active: 10 µM | –
Cc1nc(C(=O)NCC(=O)c2ccc(Cl)cc2)c(C(F)(F)F)o1 | inconclusive: 1.78 µM [activator, partial curve] | –

(listing goes on)

SMILES | Potency | activity change, negative = inhibition
CN(Cc1c(F)cccc1Cl)C(=O)c1cc2ccccc2o1 | inconclusive: 35.5 µM [inhibitor, single point] | –
COc1ccccc1N1CCN(C(=O)c2cc(-c3ccc(F)cc3)[nH]c2C)CC1 | inconclusive: 11.2 µM [activator, single point] | –
O=C(Nc1ccon1)C(Sc1ccccc1)c1ccccc1 (stereo not given) | inconclusive: 17.8 µM [activator, single point] | –
CC(=O)Nc1ccc(S(=O)(=O)N2CCC(n3cnc4cc(F)ccc43)CC2)cc1 | inconclusive: 6.31 µM [activator, partial curve, poor fit] | –
CCCc1c(C(=O)N2CCN(c3ccccc3OC)CC2)cnn1-c1ccccc1 | – | inactive: 34.4%
O=C(C1COc2ccccc2O1)N1CCN(Cc2ccc3c(c2)OCO3)CC1 (stereo not given) | – | inactive: 31.2%
COc1cccc(C2CC(=O)Nc3cc(OC)c(OC)c(OC)c32)c1OC (stereo not given) | inconclusive: 10 µM [inhibitor, partial curve] | –
COC(=O)c1cc(NC2c3ccccc3C(=O)N2c2ccc(Cl)cn2)cc(C(=O)OC)c1 (stereo not given) | inconclusive: 1.58 µM [activator, full curve] | –
Cc1ccc(-c2ccnc3c(Cl)c(C)nn23)cc1 | – | inactive: -23.4%
Cc1ccc(N2Cc3ccccc3C2=O)cc1 | inconclusive: 12.6 µM [inhibitor, single point] | –
CCOC(=O)Cc1c(C)nc2c(-c3ccccc3)c(-c3ccccc3)[nH]n2c1=O | active: 12.6 µM | –
Cn1ncc([N+](=O)[O-])c1C(=O)Nc1nc2ccccc2n1CCN1CCCCC1 | active: 3.55 µM | –
O=C(N/N=C/c1cccc(F)c1)c1c(O)c2ccccc2[nH]c1=O | inconclusive: 2.82 µM [activator, full curve, poor fit] | –
CCc1nnc(NS(=O)(=O)c2ccc(NC(=S)NC(=O)c3ccc(F)cc3)cc2)s1 | inconclusive: 22.4 µM [inhibitor, single point] | –
O=C(CCN1C(=O)/C(=C\C=C\c2ccccc2)SC1=S)Nc1ccc(C(=O)O)cc1 | inconclusive: 35.5 µM [inhibitor, single point] | –
Cc1nc2cc(-c3cccc(F)c3)nn2c(C)c1CCC(=O)NC(C)c1ccc2c(c1)OCCO2 (stereo not given) | inconclusive: 35.5 µM [activator, single point] | –
O=C(NC1CCCCC1)C(c1cccnc1)N(C(=O)CCl)c1ccccc1Cl (stereo not given) | inconclusive: 20 µM [inhibitor, partial curve, poor fit] | –
O=S(=O)(Nc1ncccn1)c1ccc(NC(=S)Nc2ccc(Cl)cc2)cc1 | inconclusive: 8.91 µM [inhibitor, partial curve] | –
CCCCC(=O)N1C/C=C\C(c2ccc(OC)cc2)N(Cc2ccc(F)cc2)C(=O)C1Cc1ccccc1 (stereo not given) | inconclusive: 15.8 µM [inhibitor, single point] | –
Cn1cccc1-c1cc(C(=O)N/N=C/c2cc(Br)ccc2O)[nH]n1 | active: 7.08 µM | –
O=C(NC(=O)c1c(Cl)cccc1Cl)Nc1ccc(Oc2cccnc2)nc1 | inconclusive: 35.5 µM [activator, single point] | –
CC1CN(C(=O)CCC(=O)NCCCN2CCC(Cc3ccccc3)CC2)c2cc(Cl)ccc2O1 (stereo not given) | inconclusive: 35.5 µM [inhibitor, single point] | –
